The target in this test is T1, peripheral myelin protein of 22 kDa (PMP22), endogenous in rat sciatic nerve (rat (endogenous in sciatic nerve)) (UniProt P25094).
T1 sequence: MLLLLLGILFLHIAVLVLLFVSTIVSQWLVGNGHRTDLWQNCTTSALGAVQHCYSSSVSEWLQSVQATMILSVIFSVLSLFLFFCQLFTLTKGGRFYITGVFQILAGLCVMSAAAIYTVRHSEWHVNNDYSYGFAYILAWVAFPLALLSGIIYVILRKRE
The test is described as follows: co-IP; immunoprecipitation of endogenous PMP22 from rat sciatic nerve (P18) with anti-PMP22 antibody-coupled magnetic beads; lysis in 1% DDM, diluted to 0.15%; 1 h at 4 °C, washes with 0.025% DDM; control beads with unspecific antibodies or empty; Western blot. On the technique in general: In western blotting, separated proteins are transferred to a membrane and probed.

Amino acid sequences for entries named in this document (tags omitted).
UniProt O54857: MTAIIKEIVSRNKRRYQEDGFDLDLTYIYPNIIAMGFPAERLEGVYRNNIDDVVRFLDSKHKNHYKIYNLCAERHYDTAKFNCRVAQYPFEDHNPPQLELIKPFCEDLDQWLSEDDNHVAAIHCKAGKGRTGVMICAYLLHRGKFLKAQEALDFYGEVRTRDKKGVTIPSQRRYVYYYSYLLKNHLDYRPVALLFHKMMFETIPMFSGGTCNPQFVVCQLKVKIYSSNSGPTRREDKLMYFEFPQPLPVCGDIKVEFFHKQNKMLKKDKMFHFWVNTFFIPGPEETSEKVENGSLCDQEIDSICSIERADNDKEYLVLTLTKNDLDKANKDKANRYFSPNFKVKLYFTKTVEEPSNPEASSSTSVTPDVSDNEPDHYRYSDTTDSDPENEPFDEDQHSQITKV

No constants are given. Whether binding was seen depends on the method and setting. In cells and extracts the contact can be indirect.

Take “phosphatase and tensin homolog (PTEN), endogenous in rat sciatic nerve (from UniProt O54857 1-403)”: the binding result is on record as “no binding”.
